Reference: patent publication EP1759709B1 (Elan Pharmaceuticals Inc., dated 2013)
Where a chain is given by its changes, count along the chain named. No constants are given. Whether binding was seen depends on the method and setting. Some binding calls cover weakened binding; strength is not graded here.

The chains behind the UniProt entries cited, without tags or fusion partners. Where a name states a change or a piece, a line headed by the entry shows the natural chain unless it says otherwise.
UniProt P13612: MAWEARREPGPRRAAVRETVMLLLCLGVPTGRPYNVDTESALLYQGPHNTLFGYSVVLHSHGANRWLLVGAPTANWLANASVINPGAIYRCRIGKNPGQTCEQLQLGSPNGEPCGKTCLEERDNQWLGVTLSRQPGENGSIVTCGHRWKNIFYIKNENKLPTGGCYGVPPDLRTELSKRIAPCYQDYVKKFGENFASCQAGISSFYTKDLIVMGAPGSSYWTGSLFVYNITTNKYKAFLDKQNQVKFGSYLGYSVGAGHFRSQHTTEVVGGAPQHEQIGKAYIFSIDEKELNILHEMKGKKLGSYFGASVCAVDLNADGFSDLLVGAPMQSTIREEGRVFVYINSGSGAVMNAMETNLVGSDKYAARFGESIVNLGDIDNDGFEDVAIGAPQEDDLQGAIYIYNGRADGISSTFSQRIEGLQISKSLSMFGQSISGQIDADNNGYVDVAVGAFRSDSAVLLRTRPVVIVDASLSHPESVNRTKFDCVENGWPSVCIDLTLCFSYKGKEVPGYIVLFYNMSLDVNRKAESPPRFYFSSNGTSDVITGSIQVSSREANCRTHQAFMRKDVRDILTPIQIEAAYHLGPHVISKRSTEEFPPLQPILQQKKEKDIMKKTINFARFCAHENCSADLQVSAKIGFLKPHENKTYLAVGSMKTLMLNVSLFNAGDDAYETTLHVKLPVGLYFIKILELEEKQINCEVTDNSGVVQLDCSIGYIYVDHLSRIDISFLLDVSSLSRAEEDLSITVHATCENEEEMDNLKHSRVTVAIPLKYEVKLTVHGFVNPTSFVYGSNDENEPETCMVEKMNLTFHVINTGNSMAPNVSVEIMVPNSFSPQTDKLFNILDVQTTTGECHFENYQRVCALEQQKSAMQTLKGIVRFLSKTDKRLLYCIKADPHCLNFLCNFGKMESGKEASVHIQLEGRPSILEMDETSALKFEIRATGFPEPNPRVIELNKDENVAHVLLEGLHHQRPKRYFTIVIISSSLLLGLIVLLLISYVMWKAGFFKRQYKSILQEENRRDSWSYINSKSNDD
UniProt P05556: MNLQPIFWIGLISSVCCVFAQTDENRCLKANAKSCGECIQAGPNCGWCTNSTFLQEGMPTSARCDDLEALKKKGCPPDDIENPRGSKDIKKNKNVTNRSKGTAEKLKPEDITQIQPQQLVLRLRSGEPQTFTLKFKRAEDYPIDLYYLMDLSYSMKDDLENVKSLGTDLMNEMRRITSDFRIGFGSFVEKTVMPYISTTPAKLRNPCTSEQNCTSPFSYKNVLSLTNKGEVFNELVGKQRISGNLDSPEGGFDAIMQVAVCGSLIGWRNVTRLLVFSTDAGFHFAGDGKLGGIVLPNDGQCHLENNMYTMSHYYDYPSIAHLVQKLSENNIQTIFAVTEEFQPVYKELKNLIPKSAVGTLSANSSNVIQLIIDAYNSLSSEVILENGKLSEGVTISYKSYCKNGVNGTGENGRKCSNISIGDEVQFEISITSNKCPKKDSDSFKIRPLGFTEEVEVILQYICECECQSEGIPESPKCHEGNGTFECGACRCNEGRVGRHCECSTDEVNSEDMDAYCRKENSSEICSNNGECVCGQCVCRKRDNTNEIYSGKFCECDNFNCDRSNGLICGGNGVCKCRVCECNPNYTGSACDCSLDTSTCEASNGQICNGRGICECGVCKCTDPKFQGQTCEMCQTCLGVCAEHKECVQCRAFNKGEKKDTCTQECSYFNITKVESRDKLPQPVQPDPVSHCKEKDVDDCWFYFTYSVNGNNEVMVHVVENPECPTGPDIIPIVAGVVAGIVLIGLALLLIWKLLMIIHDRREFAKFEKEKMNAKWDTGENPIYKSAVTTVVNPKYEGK

B1: reshaped human 21.6 antibody (La + Hb) (antibody, V domains shown)
VH: QVQLVQSGAEVKKPGASVKVSCKASGFNIKDTYIHWVRQAPGQGLEWMGRIDPANGYTKYDPKFQGRVTITADTSASTAYMELSSLRSEDTAVYYCAREGYYGNYGVYAMDYWGQGTLVTVSS
VL: DIQMTQSPSSLSASVGDRVTITCKTSQDINKYMAWYQQTPGKAPRLLIHYTSALQPGIPSRFSGSGSGRDYTFTISSLQPEDIATYYCLQYDNLWTFGQGTKVEIK
B2: reshaped human 21.6 antibody (La + Hc) (antibody, V domains shown)
VH: B1 VH with G44R, Y102F
VL: B1 VL

Columns and labels:
[1] = target: T1, human α4β1 integrin (human) (UniProt P13612+P05556); experiment: ELISA on L cells expressing α4β1 integrin; crude supernatants
[2] = target: T1, human α4β1 integrin (human); experiment: ELISA on L cells expressing human α4β1 integrin, in parallel with chimeric 21.6 antibody

| Binder | binding [1] | binding [2] |
| --- | --- | --- |
| B1 | binds |  |
| B2 |  | binds |
